Measurements as given in patent US10905118B2, “Triscationic amphiphile compounds, compositions, and methods for making same” (James Madison Innovations, Inc., priority 2014, dated 2021).
Some entries share one result that the patent states for a list of compounds.

Legend:
Gram-positive bacteria = assay: Minimum inhibitory concentration, summary over Gram-positive strains; type: cell-based; conditions: range over the four Gram-positive strains
Gram-negative bacteria = assay: Minimum inhibitory concentration, summary over Gram-negative strains; type: cell-based, Escherichia coli, Pseudomonas aeruginosa; conditions: range over the two Gram-negative strains

SMILES | MIC values for Gram-positive bacteria (Gram-positive bacteria) | MIC values for Gram-negative bacteria (Gram-negative bacteria)
CCCCCCCCCCCC[N+](C)(C)Cc1cc(C[n+]2ccccc2)cc(C[N+](C)(C)CCCCCCCCCCCC)c1.[Br-].[Br-].[Br-] [Compound 3] | 1 to 2 µM | 4 to 16 µM
CCCCCCCCCCCC[N+](C)(C)Cc1cc(C[N+](C)(C)C)cc(C[N+](C)(C)CCCCCCCCCCCC)c1.[Br-].[Br-].[Br-] [Compound 8] | 1 to 2 µM | 4 to 16 µM
